# Assay results: the supplement of paper PMC11348887
# Structures can show the parent of a compound that is named as a salt. This is one part of the list. Most entries show no effect beyond the scatter of the controls.
# System: hPSC-derived cortical neurons (WA09)
# Test: total neurite length per nucleus (MAP2) z-score; higher = more neurite growth
# Conditions: 5 µM; treatment: days 7-14 after plating, readout day 21
row,Structure (SMILES),total neurite length per nucleus (z-score)
1,CC(C)(C)CC(C)(C)c1ccc(OCCOCC[N+](C)(C)Cc2ccccc2)cc1 [Benzethonium Chloride],-4.18
2,C=CC(=O)Nc1cccc(Sc2nc(Nc3ccc(N4CCN(C)CC4)cc3)ncc2Cl)c1,-0.526
3,Cn1cc(-c2ccncc2)c(-c2ccc(OCc3ccc4ccccc4n3)cc2)n1,0.871
4,Fc1ccc([C@@H]2CCNC[C@H]2COc2ccc3c(c2)OCO3)cc1 [Paroxetine HCl],0.389
5,NS(=O)(=O)c1cc(C(=O)O)c(NCc2ccco2)cc1Cl [Furosemide],-0.351
6,CCOCc1nc2c(N)nc3ccccc3c2n1CC(C)(C)O [Resiquimod],-0.263
7,O=C(COc1ccc(Cl)cc1)NC1CCC(NC(=O)COc2ccc(Cl)cc2)CC1 (stereo not drawn) [ISRIB (trans-isomer)],0.273
8,Cc1[nH]c2ccccc2c1CCNCc1ccc(/C=C/C(=O)NO)cc1 [Panobinostat (LBH589)],-2.92
9,CC(C(=O)O)c1ccc2c(c1)Cc1cccnc1O2 (centres undefined) [Pranoprofen],-0.665
10,OC[C@H]1O[C@@H](O[C@@H]2[C@@H](CO)OC(O)(CO)[C@H]2O)[C@H](O)[C@@H](O)[C@H]1O (mixture of isomers) [Lactulose],0.0394
11,COC(=O)[C@H]1[C@H]2C[C@@H]3c4[nH]c5cc(OC)ccc5c4CCN3C[C@H]2C[C@@H](OC(=O)c2cc(OC)c(OC)c(OC)c2)[C@@H]1OC [Reserpine],-1.72
12,COc1cc(C2Oc3cc([C@H]4Oc5cc(O)cc(O)c5C(=O)[C@@H]4O)ccc3OC2CO)ccc1O (some centres undefined) [Silibinin],0.693
13,O=C(O)c1cc(/N=N/c2ccc(O)c(C(=O)O)c2)ccc1O [Olsalazine Sodium],-0.387
14,OCCOc1ccc(/C(=C(/CCCl)c2ccccc2)c2ccccc2)cc1 [Ospemifene],0.316
15,O=NO [Sodium Nitrite],-0.5
16,C[C@H](NC(=O)/C(C#N)=C/c1cccc(Br)n1)c1ccccc1,0.012
17,CCC(C)(C)c1ccc(CC(C)CN2C[C@@H](C)O[C@@H](C)C2)cc1 (some centres undefined) [Amorolfine HCl],-3.82

row,Structure (SMILES),total neurite length per nucleus (z-score)
1,Cc1cc([C@@H](C)Nc2ccccc2C(=O)O)c2nc(N3CCOCC3)cc(=O)n2c1,-0.311
2,O=C(O)CCc1ccc(NCc2cccc(Oc3ccccc3)c2)cc1,0.58
3,Nc1nc(NCCc2ccc(O)cc2)nc2nc(-c3ccco3)nn12,0.846
4,O=c1c(-n2ccnn2)c[nH]n1-c1cc(N2CCOCC2)ncn1 [Molidustat (BAY 85-3934)],0.212
5,O=C(NOC[C@H](O)CO)c1ccc(F)c(F)c1Nc1ccc(I)cc1F,-0.201
6,Brc1ccc([C@H]2CN3CCSC3=N2)cc1 [(-)-p-Bromotetramisole Oxalate],0.446
7,Cc1cc(C)nc(NS(=O)(=O)c2ccc(N)cc2)n1 [Sulfamethazine],0.3
8,CCNC(=O)[C@H]1O[C@@H](n2cnc3c(N)nc(NCCc4ccc(CCC(=O)O)cc4)nc32)[C@H](O)[C@@H]1O,-0.0349
9,COC1=C2C[C@@H](C)C[C@H](OC)[C@H](O)[C@@H](C)/C=C(\C)[C@H](OC(N)=O)[C@@H](OC)/C=C\C=C(/C)C(=O)NC(=CC1=O)C2=O [Geldanamycin],2.05
10,CN1CCN(C(c2ccccc2)c2ccccc2)CC1 [Cyclizine 2HCl],-0.921
11,CCN1CCC[C@H]1CNC(=O)c1cc(S(N)(=O)=O)ccc1OC [Levosulpiride],1.28
12,CS(=O)(=O)c1ccc(C2=C(c3ccccc3)C(=O)OC2)cc1 [Rofecoxib],1
13,O=C1Nc2ccc(Cl)cc2[C@@](C#CC2CC2)(C(F)(F)F)O1 [Efavirenz],-0.514
14,CC(=O)O[C@]1(C(C)=O)CC[C@H]2[C@@H]3C=C(Cl)C4=CC(=O)[C@@H]5C[C@@H]5[C@]4(C)[C@H]3CC[C@@]21C [Cyproterone Acetate],-1.61
15,CN(C)[C@@H]1C(O)=C(C(N)=O)C(=O)[C@@]2(O)C(O)=C3C(=O)c4c(O)cccc4[C@@](C)(O)[C@H]3C[C@@H]12 [Tetracycline HCl],0.471
16,C=C[C@](C)(O)CC[C@@H]1[C@@]2(C)CCCC(C)(C)[C@@H]2CC[C@@]1(C)O [Sclareol],-0.199
17,O=C1CN(/N=C/c2ccc(-c3ccc([N+](=O)[O-])cc3)o2)C(=O)N1 [Dantrolene sodium hemiheptahydrate],-0.128

# Another view of 2 compounds above:
row	Structure (SMILES)	total neurite length per nucleus (z-score)
8	CCNC(=O)[C@H]1O[C@@H](n2cnc3c(N)nc(NCCc4ccc(CCC(=O)O)cc4)nc32)[C@H](O)[C@@H]1O	-0.0349
9	COC1=C2C[C@@H](C)C[C@H](OC)[C@H](O)[C@@H](C)/C=C(\C)[C@H](OC(N)=O)[C@@H](OC)/C=C\C=C(/C)C(=O)NC(=CC1=O)C2=O [Geldanamycin]	2.05
